# Library screen at single concentrations

Chains of the proteins cited; added tags and fusions are not shown. Residues count along the entry.
UniProt Q8IDJ8, 1-583: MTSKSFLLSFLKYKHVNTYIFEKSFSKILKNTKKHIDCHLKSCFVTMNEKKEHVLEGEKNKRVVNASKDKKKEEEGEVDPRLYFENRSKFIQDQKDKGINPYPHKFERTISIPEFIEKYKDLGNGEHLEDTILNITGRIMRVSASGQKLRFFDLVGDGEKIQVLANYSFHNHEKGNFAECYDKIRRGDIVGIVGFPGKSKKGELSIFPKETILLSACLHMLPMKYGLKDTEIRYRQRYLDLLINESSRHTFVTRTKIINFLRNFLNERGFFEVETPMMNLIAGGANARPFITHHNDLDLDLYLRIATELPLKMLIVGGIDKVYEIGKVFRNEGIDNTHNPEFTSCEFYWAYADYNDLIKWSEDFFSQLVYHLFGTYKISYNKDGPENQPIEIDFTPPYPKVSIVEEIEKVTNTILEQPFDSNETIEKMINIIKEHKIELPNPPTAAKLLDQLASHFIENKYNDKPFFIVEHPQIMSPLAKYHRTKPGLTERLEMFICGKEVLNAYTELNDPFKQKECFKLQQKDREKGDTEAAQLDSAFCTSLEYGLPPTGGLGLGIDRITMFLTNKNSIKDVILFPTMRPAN

The values are deposited in ChEMBL (CHEMBL3988442, “University of Dundee, Small-Polar-MMV Screening Library” (2021)).

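Lysine-tRNA ligase, Plasmodium falciparum 3D7 (UniProt Q8IDJ8). Enzyme assay of the cytosolic lysyl-tRNA synthetase in 384-well plates, read by luminescence. Compounds at 30 µM. Direction is inferred from only a few compounds that gave an IC50; most scored high, so higher reads as stronger inhibition. Of about 69,000 compounds tested this way, about 49 (0.071%) reached 50% or more in at least one test.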

Values are the deposited “Percent Effect”, in %.
How 0% and 100% were set is not recorded. Most values in the screen are low, and negative values occur.
The compounds are a random part of those screened.

For Cc1ccc(NC2CCN(C(=O)c3cccn3C)CC2)nn1 the result was -2.956%.
For CCOc1ncccc1NC(=O)N1CCCN(C(=O)OC)CC1 the result was 0.3858%.
For Cc1ccc(NCCCNC(=O)NCC2CCS(=O)(=O)C2)nc1 (centres unmarked) the result was 1.145%.
For O=C(Cc1ccc(F)cc1)NCCNc1cc(N2CCCC2)cnn1 the result was 1.834%.
For CC(C)C(=O)Nc1cc(C(C)(C)C)nn1-c1ccccn1 the result was -2.011%.
For Cc1ccnc(NC(=O)C(C)Cn2cncn2)c1 (centres unmarked) the result was 4.358%.
For Cc1cc(C(=O)N2CCN(Cn3cc(Cl)cn3)CC2)on1 the result was 6.688%.
For CCc1nc(C(=O)N2CCCC2)nn1-c1c(Cl)cccc1Cl the result was 1.296%.
For CCC(=O)N1CCC(c2nc(C)ncc2-c2ccncc2)CC1 the result was -0.9675%.
For O=S1(=O)CCC(N2CCN(c3cc(C(F)(F)F)ccn3)CC2)C1 (centres unmarked) the result was 1.065%.
For COCCNC(=O)[C@H]1C[C@@H]2CCN(c3ccccc3)C[C@H]2O1 the result was 1.273%.
For O=C(NCc1cccnc1-n1cncn1)c1ccc2c(c1)CCO2 the result was 0.7693%.
For Cc1c(-c2nc(-c3cccc(CN4CCOCC4)c3)no2)cnn1C the result was -1.903%.
For O=C(NCCNc1cnccn1)N1CCCC(N2CCCC2)C1 (centres unmarked) the result was 1.267%.
For CCNC(=O)N(C)C1CCCc2nc(C)sc21 (centres unmarked) the result was 1.066%.
For Cc1ccc(CNC(=O)N2CCN(C(C)c3cccnc3)CC2)cn1 (centres unmarked) the result was 4.464%.
For Cn1c(C(=O)N2CCc3[nH]cnc3C2C(=O)O)ccc1-c1ccccc1 (centres unmarked) the result was 0.8898%.
For c1cnc2c(c1)cc([C@@H]1CCCO1)n2CCN1CCOCC1 the result was 0.9773%.
For O=C(C1CCC1)N1C[C@@H]2CN(Cc3ccncc3)C(=O)[C@@H]2C1 the result was 3.223%.
For COC(=O)C1CCN(C(=O)CN2CCN(c3cccc(C)c3)CC2)CC1 the result was 1.818%.
For O=C(Cn1nc(Br)nc1Br)N1CCCCC1 the result was 0.503%.
For Cc1nc(CC(=O)N2CCN(C)CC2c2ccccc2)cs1 (centres unmarked) the result was 10.85%.
For Cc1cccc(CN2CCC3(CCC(C(=O)N(C)C)O3)CC2)n1 (centres unmarked) the result was 7.772%.
For Cc1ncsc1CN1C[C@@H]2COC[C@]2(C(=O)NCc2cccnc2)C1 the result was 1.283%.
For CNc1cccc(C2CCCN(C(=O)c3coc(C)n3)C2)n1 (centres unmarked) the result was 5.321%.
For COc1ccc(F)cc1C(C(=O)O)N1CCSCC1 (centres unmarked) the result was 7.703%.
For Cc1n[nH]c(C2CN(C(=O)c3scnc3C)CCO2)n1 (centres unmarked) the result was 0.07574%.
For CCNc1ncc(C(=O)N[C@H](C(N)=O)c2ccccc2)cn1 the result was 0.3736%.
For Cc1cccc(OCc2nnc(SCC3CCCN(C)C3)o2)c1 (centres unmarked) the result was 1.058%.
For CN(Cc1cccc(OC(F)(F)F)c1)C(=O)c1cnsn1 the result was 5.152%.
For c1cncc(OCc2noc3c2CN(Cc2cccs2)CC3)c1 the result was 1.344%.
For Cn1c(CN2CCCC2)nnc1C1CCCN(C(=O)CN2CCCC2)C1 (centres unmarked) the result was 5.889%.
For COCc1nc(C(=O)NS(=O)(=O)c2cc(Br)ccc2C)cs1 the result was 1.399%.
For CC(C)c1noc(CNc2ccc(OC(F)F)cc2OC(F)F)n1 the result was -4.223%.
For Cc1ccc(CC(=O)N2CCCC(c3nccs3)C2)cn1 (centres unmarked) the result was 1.092%.
For O=C(O)c1nnn(-c2cc(F)cc(F)c2)c1-c1ccncc1 the result was -4.124%.
For CCc1csc(CNCC(=O)Nc2ccc(Cl)c(C)c2)n1 the result was 1.926%.
For O=C(c1cccnc1O)N1CCN(Cc2ccccc2F)CC1 the result was -1.575%.
For CCc1noc(C(C)N2CCN(c3ccc(C#N)cn3)CC2)n1 (centres unmarked) the result was -0.4527%.
For N#CC1C(=O)Nc2c(cnn2C2CCCC2)C12CCCCC2 (centres unmarked) the result was 11.93%.
For CCN(Cc1ccccc1)C(=O)CN1CCOC(Cn2cncn2)C1 (centres unmarked) the result was -1.039%.
For CN1CCN(c2nc(O)c3c(-c4ccccn4)ccnc3n2)CC1 the result was -0.08125%.
For Cc1noc(C)c1CN1CC2(CCN(C(=O)c3cc[nH]n3)C2)CC1=O (centres unmarked) the result was 2.824%.
For c1cc(-c2c[nH]c([C@@H]3COCCN3C3CCCCC3)n2)ccn1 the result was 1.488%.
For Cn1cc(CN2CCCn3cnc(COCC4CC4)c3C2)cn1 the result was 2.824%.
For Cc1ccc(CN(CCCn2ccnc2)Cc2ccccc2O)s1 the result was 1.943%.
For O=C(CO)N1CCCC(N2CCN(c3ccccc3F)CC2)C1 (centres unmarked) the result was -0.8363%.
For O=C(c1cscn1)N1CCC2(CCN(S(=O)(=O)c3ccccc3)C2)C1 (centres unmarked) the result was 5.423%.
For CSCCCN1CCn2nc(CNC(=O)N(C)C)cc2C1 the result was -0.06128%.
For O=C(NCCc1nnc2n1CCCCC2)N1CCC2(CCCC2)CC1 the result was 3.196%.
For CNC(=O)[C@@H](c1ccccc1)N1CCC[C@H]1C(=O)NCc1ccccn1 the result was 4.44%.
For Cc1nc(C(C)C)sc1C(=O)NCCNc1ncccn1 the result was 2.183%.

Some entries from above, unchanged:

* CCNc1ncc(C(=O)N[C@H](C(N)=O)c2ccccc2)cn1 | 0.3736%
* Cc1n[nH]c(C2CN(C(=O)c3scnc3C)CCO2)n1 (centres unmarked) | 0.07574%
* Cn1cc(CN2CCCn3cnc(COCC4CC4)c3C2)cn1 | 2.824%
* Cc1cccc(CN2CCC3(CCC(C(=O)N(C)C)O3)CC2)n1 (centres unmarked) | 7.772%
* Cc1ccc(NCCCNC(=O)NCC2CCS(=O)(=O)C2)nc1 (centres unmarked) | 1.145%
* COCCNC(=O)[C@H]1C[C@@H]2CCN(c3ccccc3)C[C@H]2O1 | 1.273%